According to PubChem BioAssay AID248 (DTP/NCI, 2004):
The list shows only some results of the screen, not a fair sample: it covers a few groups of compounds. Not every dose and run of a compound is shown. T/C is the treated group as % of the vehicle group. Some entries give survivors of the animals treated and no T/C: the source files T/C as zero there, which appears to mark a toxic dose or a test without result, not a measured value. Some survivor counts are full or nearly so, which does not show that the dose was tolerated: the source hardly ever lists a survival T/C far under the control, and the zero likely stands for such cases as well. Counts of survivors are from the toxicity check (mostly the fifth day) where no day follows; animals may have died later. Schedules are NCI's codes, taken here to give the interval after Q, in days (D) or hours (H), and the number of doses after X. Some schedules carry Z or #; the key to these is not given. Some doses were run more than once; the results are listed from low to high. Brackets with × say how often a value occurs here. For survival time, the PubChem record calls one and a half times the control and up active, and a quarter to a half above the control has no call in these data; cut-offs in other NCI protocols can differ. Some T/C values are marked as having no survivor count here; that says nothing about deaths at the dose. Some T/C values carry the count of animals alive at the toxicity check (mostly the fifth day); without a count or a note in brackets, all were alive then.

System: L1210 leukemia ip in BDF1 mice, survival T/C
Test: NCI In Vivo Anticancer Drug Screen. Data for tumor model L1210 Leukemia (intraperitoneal) in B6D2F1 (BDF1) mice
Conditions: T/C endpoint: mean survival time, higher T/C = longer survival
[1] = dose: 75.0 mg/kg/injection, schedule: Q01DX001 (ip), vehicle: water
[2] = dose: 100.0 mg/kg/injection, schedule: Q04DX002 (ip), vehicle: saline with Tween-80
[3] = dose: 150.0 mg/kg/injection, schedule: Q01DX001 (ip), vehicle: water
[4] = dose: 200.0 mg/kg/injection, schedule: Q04DX002 (ip), vehicle: saline with Tween-80
[5] = dose: 400.0 mg/kg/injection, schedule: Q04DX002 (ip), vehicle: saline with Tween-80
[6] = dose: 100.0 mg/kg/injection, schedule: Q01DX001 (ip), vehicle: other
[7] = dose: 200.0 mg/kg/injection, schedule: Q01DX001 (ip), vehicle: other
[8] = dose: 400.0 mg/kg/injection, schedule: Q01DX001 (ip), vehicle: other
[9] = dose: 100.0 mg/kg/injection, schedule: Q01DX001 (ip), vehicle: saline
[10] = dose: 200.0 mg/kg/injection, schedule: Q01DX001 (ip), vehicle: saline
[11] = dose: 400.0 mg/kg/injection, schedule: Q01DX001 (ip), vehicle: saline

## COc1cccc2c1OCCN2CCCl
dose: 132.0 mg/kg/injection, schedule: Q01DX Z (ip), vehicle: methylcellulose (MC)
  T/C: 96 % of control
dose: 201.0 mg/kg/injection, schedule: Q01DX Z (ip), vehicle: methylcellulose (MC)
  T/C: 98 % of control
dose: 300.0 mg/kg/injection, schedule: Q01DX Z (ip), vehicle: methylcellulose (MC)
  T/C: 101 % of control [5 of 6 alive]
dose: 450.0 mg/kg/injection, schedule: Q01DX Z (ip), vehicle: methylcellulose (MC)
  survivor count: 5 of 6

## Cc1cc(Cl)nc(NC(=O)NP(=O)(Nc2ccccc2)Nc2ccccc2)n1
dose: 50.0 mg/kg/injection, schedule: Q01DX001 (ip), vehicle: alcohol
  T/C: 114 % of control
dose: 100.0 mg/kg/injection, schedule: Q01DX001 (ip), vehicle: alcohol
  T/C: 98 % of control
dose: 200.0 mg/kg/injection, schedule: Q01DX001 (ip), vehicle: alcohol
  T/C: 102 % of control
dose: 400.0 mg/kg/injection, schedule: Q01DX001 (ip), vehicle: alcohol
  T/C: 108 % of control

## C1CN1
dose: 0.78 mg/kg/injection, schedule: Q01DX009 (iv), vehicle: saline
  T/C: 102 % of control
dose: 1.56 mg/kg/injection, schedule: Q01DX009 (iv), vehicle: saline
  T/C: 102 % of control
dose: 3.12 mg/kg/injection, schedule: Q01DX009 (iv), vehicle: saline
  T/C: 108 % of control
dose: 6.25 mg/kg/injection, schedule: Q01DX009 (iv), vehicle: saline
  survivor count: 1 of 6
dose: 9.38 mg/kg/injection, schedule: Q01DX001 (ip), vehicle: water
  T/C: 96 % of control [5 of 6 alive]
dose: 12.5 mg/kg/injection, schedule: Q01DX009 (iv), vehicle: saline
  survivor count: 1 of 6
dose: 15.0 mg/kg/injection, schedule: Q01DX001 (ip), vehicle: saline
  T/C: 103 % of control
dose: 18.75 mg/kg/injection, schedule: Q01DX001 (ip), vehicle: water
  T/C: 95 % of control
dose: 25.0 mg/kg/injection, schedule: Q01DX009 (iv), vehicle: saline
  survivor count: 2 of 6
dose: 30.0 mg/kg/injection, schedule: Q01DX001 (ip), vehicle: saline
  T/C: 106 % of control
dose: 37.5 mg/kg/injection, schedule: Q01DX001 (ip), vehicle: water
  survivor count: 0 of 6
dose: 50.0 mg/kg/injection, schedule: Q01DX009 (iv), vehicle: saline
  survivor count: 0 of 6
dose: 60.0 mg/kg/injection, schedule: Q01DX001 (ip), vehicle: saline
  T/C: 107 % of control
[1]
  T/C: 104 and 105 % of control
  survivor count: 0 of 6
dose: 75.0 mg/kg/injection, schedule: Q01DX001 (sc), vehicle: saline
  survivor count: 0 of 6
dose: 100.0 mg/kg/injection, schedule: Q01DX009 (iv), vehicle: saline
  survivor count: 0 of 6
[2]
  survivor count: 0 of 3
[3]
  T/C: 100 and 109 % of control
  survivor count: 0 of 6
dose: 150.0 mg/kg/injection, schedule: Q01DX001 (sc), vehicle: saline
  survivor count: 0 of 6
dose: 200.0 mg/kg/injection, schedule: Q01DX009 (iv), vehicle: saline
  survivor count: 0 of 6
[4]
  survivor count: 0 of 3
dose: 300.0 mg/kg/injection, schedule: Q01DX001 (ip), vehicle: water
  survivor count: 0 of 6 (2×) and 1 of 6
dose: 300.0 mg/kg/injection, schedule: Q01DX001 (sc), vehicle: saline
  survivor count: 0 of 6
[5]
  survivor count: 0 of 3

## COC(=O)C(O)(c1ccccc1)c1ccccc1
dose: 50.0 mg/kg/injection, schedule: Q01DX001 (ip), vehicle: other
  T/C: 100 % of control [survivor count not shown]
[6]
  T/C: 92 % of control [survivor count not shown]
[7]
  T/C: 100 % of control [survivor count not shown]
[8]
  T/C: 103 % of control [survivor count not shown]

## O=NN1CCN/C1=N\[N+](=O)[O-]
dose: 20.0 mg/kg/injection, schedule: Q01DX Z (ip), vehicle: methylcellulose (MC)
  T/C: 112 % of control
dose: 40.0 mg/kg/injection, schedule: Q01DX Z (ip), vehicle: methylcellulose (MC)
  T/C: 123 % of control
dose: 80.0 mg/kg/injection, schedule: Q01DX Z (ip), vehicle: methylcellulose (MC)
  T/C: 135 % of control
dose: 100.0 mg/kg/injection, schedule: Q01DX001 (ip), vehicle: Klucel (hydroxypropylcellulose) (HPC)
  T/C: 103 % of control
dose: 160.0 mg/kg/injection, schedule: Q01DX Z (ip), vehicle: methylcellulose (MC)
  T/C: 107 % of control [4 of 6 alive]
dose: 200.0 mg/kg/injection, schedule: Q01DX001 (ip), vehicle: Klucel (hydroxypropylcellulose) (HPC)
  T/C: 114 % of control
dose: 320.0 mg/kg/injection, schedule: Q01DX Z (ip), vehicle: methylcellulose (MC)
  survivor count: 0 of 6
dose: 400.0 mg/kg/injection, schedule: Q01DX001 (ip), vehicle: Klucel (hydroxypropylcellulose) (HPC)
  T/C: 113 % of control

## CN(C)CC1CCCCC(CN(C)C)C1OC(=O)C(O)(c1ccccc1)c1ccccc1 (centres undefined)
dose: 75.0 mg/kg/injection, schedule: Q01DX001 (ip), vehicle: saline
  T/C: 110 % of control

## O=C(NNc1ccccc1)NP(=O)(NC(=O)NNc1ccccc1)NC(=O)NNc1ccccc1
dose: 50.0 mg/kg/injection, schedule: Q01DX001 (ip), vehicle: saline
  T/C: 97 % of control
[9]
  T/C: 97 % of control
[10]
  T/C: 100 % of control
[11]
  T/C: 94 % of control

## CN(C)[P+](N)(N(C)C)N(C)C.F[P-](F)(F)(F)(F)F
[6]
  T/C: 93 % of control
[7]
  T/C: 107 % of control
[8]
  survivor count: 1 of 6

## NC(=NCCN1CCN=C1N[N+](=O)[O-])N[N+](=O)[O-]
dose: 50.0 mg/kg/injection, schedule: Q04DX003 (ip), vehicle: saline with Tween-80
  T/C: 109 % of control
dose: 100.0 mg/kg/injection, schedule: Q04DX003 (ip), vehicle: saline with Tween-80
  T/C: 95 % of control
dose: 200.0 mg/kg/injection, schedule: Q04DX003 (ip), vehicle: saline with Tween-80
  T/C: 98 % of control

## O=C(Nc1ncc([N+](=O)[O-])s1)c1cc([N+](=O)[O-])cc([N+](=O)[O-])c1
dose: 5.0 mg/kg/injection, schedule: Q01DX009 (ip), vehicle: Klucel (hydroxypropylcellulose) (HPC)
  T/C: 87 % of control
dose: 5.0 mg/kg/injection, schedule: Q04DX003 (ip), vehicle: Klucel (hydroxypropylcellulose) (HPC)
  T/C: 115 % of control
dose: 10.0 mg/kg/injection, schedule: Q01DX009 (ip), vehicle: Klucel (hydroxypropylcellulose) (HPC)
  T/C: 90 % of control
dose: 10.0 mg/kg/injection, schedule: Q04DX003 (ip), vehicle: Klucel (hydroxypropylcellulose) (HPC)
  T/C: 103 % of control
dose: 20.0 mg/kg/injection, schedule: Q01DX009 (ip), vehicle: Klucel (hydroxypropylcellulose) (HPC)
  T/C: 89 % of control
dose: 20.0 mg/kg/injection, schedule: Q04DX003 (ip), vehicle: Klucel (hydroxypropylcellulose) (HPC)
  T/C: 101 % of control

## CCNCCN=C(N)C(N)=NCCNCC
[2]
  T/C: 93 % of control [survivor count not shown]
[4]
  T/C: 104 % of control [survivor count not shown]
[5]
  T/C: 97 % of control [survivor count not shown]

## CC1CCOP(c2ccccc2)O1 (centres undefined)
[9]
  T/C: 96 % of control
[10]
  T/C: 96 % of control
[11]
  T/C: 102 % of control
